# From article PMC5349447, “Applying a high-throughput fluorescence polarization assay for the discovery of chemical probes blocking La:RNA interactions in vitro and in cells” (PLoS ONE, 2017)
# Amino acid sequences for entries named in this document (tags omitted). Residues count along the entry.
# UniProt P05455, 111-348: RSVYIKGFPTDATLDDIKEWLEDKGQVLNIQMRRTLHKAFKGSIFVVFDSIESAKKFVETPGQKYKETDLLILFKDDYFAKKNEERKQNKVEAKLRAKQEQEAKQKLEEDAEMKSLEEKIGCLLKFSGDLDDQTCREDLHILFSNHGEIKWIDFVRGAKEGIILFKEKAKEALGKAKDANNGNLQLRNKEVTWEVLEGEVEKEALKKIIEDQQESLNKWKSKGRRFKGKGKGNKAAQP
# Molecular target: La-RRM1+2 (human) (UniProt P05455)
# Assay: EMSA
# Conditions: partial shift only above 300 nM protein, no reliable Kd; EMSA: about 20 mM Tris-HCl pH 7.4, 150 mM NaCl, 3 mM MgCl2, 0.5 mM EDTA, IGEPAL, glycerol, 50 nM RNA, RT 10 min; recombinant protein; protein details: His
sequence,measurement,value
CCCUUUUCCCACCCCCUAGCGCCGCUGGGCCU [TOPf],binding result,binds more weakly

# The exact form of at least one protein or probe is not confirmed. A weaker result is weaker than the reference pair of the same experiment.
